Some of these results come from one statement about several compounds together.
How the values were obtained:
[1] = tested on: nitric oxide (NO) produced in mouse BV-2 microglia cells stimulated with LPS; assay: NO production inhibition in LPS-stimulated BV-2 microglia cells (Griess reagent); format: cell-based; conditions: BV-2 cells, concentrations 1.25 to 200 μM (FIGS. 31A, 31C, 32A, 32C, 33A, 34B)
Description: BV-2 microglia cells were cultured in a humidified 5% CO2 incubator at 37° C. using a Dulbecco's modified Eagle medium supplemented with 5% fetal bovine serum and 1% penicillin/streptomycin at 100 units/mL.
In all experiments, the number of cells was 2.5×10^5 cell/ml, the cells were first treated with each of Compounds of Examples 1 to 25 by concentration (2.5 to 200 μg/ml), and LPS was diluted in medium and used at a concentration of 200 ng/ml. A cytotoxicity test was performed using MTT assay, and the MTT assay was performed by performing NO assay and injecting 30 μl of MTT at a concentration of 0.5 mg/ml into the cells in a microplate. After reacting for 2 hours in the incubator, formazan crystals were dissolved in 100 μl of DMSO, and the absorbance was measured using a Vmax microplate reader (Tencan Co., Switzerland) with a wavelength of 540 nm. In order to quantitatively measure the production of nitric oxide (NO), mouse BV-2 microglia cells were prepared in a microplate (96 well), and added with LPS (200 ng/ml) and Compounds by concentration (2.5 to 200 μg/ml). The cells reacted in an incubator for 24 h, and 50 μl of the supernatant reacted with a Griess reagent (a mixed solution of 1% sulfanilamide, 0.1% N-(1-naphthyl)-ethylenediamine dihydrochloride, and 2.5% H3PO4), and then the absorbance was measured using a Vmax 96-well microplate spectrophotometer with a wavelength of 550 nm.
In order to analyze the anti-inflammatory efficacy of Compound of Example 1, the concentration inhibitory effect of nitric oxide (NO) produced in mouse BV-2 microglia cells stimulated with LPS (200 ng/ml), a neuroinflammatory factor, was confirmed.
The neuroinflammation inhibitory effects of Compounds of Examples 2 to 25 were confirmed.
In order to analyze the anti-inflammatory efficacy of Compound 26 of Chemical Formula 2, the concentration inhibitory effect of nitric oxide (NO) produced in mouse BV-2 microglia cells stimulated with LPS (200 ng/ml), a neuroinflammatory factor, was confirmed. Compound 26 of Chemical Formula 2 was purchased from Santa Cruz biotechnology (CAS 79127-35-8) and the experiment was performed. As a result of treating Compound of Chemical Formula 2 at […], it was confirmed that the amount of nitric oxide (NO) was reduced, as shown in FIG. 37A.

BV-2 microglia cells = assay: Cytotoxicity test (MTT assay) in BV-2 microglia cells; format: cell-based, mouse; conditions: BV-2 cells, concentrations 1.25 to 200 μM

For `O=C1O[C@@H]2OC(CO)=C(Br)[C@H]3[C@@H]2C=C[C@@H]13` [Compound 24, (1S,4aS,5R,7aS)-4-bromo-3-(hydroxymethyl)-1,4a,5,7a-tetrahydro-1,5-(epoxymethano)cyclopenta[c]pyran-8-one], the NO production [1] was “noticeably inhibited” and the “cytotoxicity (MTT assay)” value (BV-2 microglia cells) was “did not show cytotoxicity”.
For `O=C1O[C@@H]2OC(CCl)=C[C@H]3[C@@H]2C=C[C@@H]13` [Compound 25, (1S,4aS,5R,7aS)-3-(chloromethyl)-1,4a,5,7a-tetrahydro-1,5-(epoxymethano)cyclopenta[c]pyran-8-one], the NO production [1] was “noticeably inhibited” and the “cytotoxicity (MTT assay)” value (BV-2 microglia cells) was “did not show cytotoxicity”.

Reference: US20250034164A1, “NOVEL COMPOUND AND COMPOSITION FOR PREVENTING OR TREATING NEUROINFLAMMATORY BRAIN DISEASES COMPRISING SAME AS ACTIVE INGREDIENT” (KOREA INSTITUTE OF OCEAN SCIENCE & TECHNOLOGY, priority 2021, published 2025)
